Test results as given in paper PMC6390652 (Toxicological Sciences, 2018).

Assays:
human GI microtissue = test: MTT viability assay; format: cell-based; conditions: Caco-2, read-out: MTT IC50
Caco-2 cells = conditions: human

SMILES	IC50 (human GI microtissue) [µM]	Caco-2 TEER IC15/Cmax (Caco-2 cells)
O=C(CCCN1CCC(O)(c2ccc(Cl)cc2)CC1)c1ccc(F)cc1 [Haloperidol]	90	–
CNCCCC12CCC(c3ccccc31)c1ccccc12 [Maprotiline]	65	129
